# Substitutions are numbered along the chain they refer to. The list shows a part of the results. For some of these results: At the low end of the ranking the order means little. For some of these results: The source does not settle which construct or isoform was used.
# Legend:
# Conditions in all cases: yeast three-hybrid, YBZ-1, SC-Leu-His + 0.5 mM 3-AT, 4 days
# [1] = target: T1, PUM1 PUF domain R1-QFR R2-VFQ R7-NPG S863Q + R864F + Q867R + N899V + Y900F + S1079N + N1080P + E1083G (UniProt Q14671)
# T1 sequence: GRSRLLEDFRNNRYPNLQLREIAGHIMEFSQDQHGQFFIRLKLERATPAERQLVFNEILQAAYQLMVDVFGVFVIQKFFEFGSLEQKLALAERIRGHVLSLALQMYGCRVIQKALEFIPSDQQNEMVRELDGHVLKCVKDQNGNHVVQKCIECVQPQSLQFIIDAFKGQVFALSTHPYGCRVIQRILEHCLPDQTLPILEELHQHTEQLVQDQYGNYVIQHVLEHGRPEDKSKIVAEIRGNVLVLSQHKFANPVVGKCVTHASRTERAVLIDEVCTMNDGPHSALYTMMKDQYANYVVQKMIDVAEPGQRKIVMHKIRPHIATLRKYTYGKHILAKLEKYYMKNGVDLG
# [2] = target: T2, PUM1 PUF domain R2-VFQ R3-THE R4-TFR N899V + Y900F + C935T + R936H + Q939E + N971T + H972F + Q975R (UniProt Q14671)
# T2 sequence: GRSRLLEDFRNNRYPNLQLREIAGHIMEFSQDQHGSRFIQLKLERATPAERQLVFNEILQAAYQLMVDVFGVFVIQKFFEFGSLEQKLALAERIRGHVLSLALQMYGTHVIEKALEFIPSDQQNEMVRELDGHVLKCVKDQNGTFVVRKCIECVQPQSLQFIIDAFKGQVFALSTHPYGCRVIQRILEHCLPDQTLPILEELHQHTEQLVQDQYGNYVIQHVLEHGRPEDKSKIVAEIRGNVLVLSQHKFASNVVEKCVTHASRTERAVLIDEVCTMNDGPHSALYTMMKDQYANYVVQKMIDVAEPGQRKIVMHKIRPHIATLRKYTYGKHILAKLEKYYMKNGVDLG
# [3] = target: T3, PUM1 PUF domain R3-THE R4-TFR C935T + R936H + Q939E + N971T + H972F + Q975R (UniProt Q14671)
# T3 sequence: T2 sequence with V72N, F73Y
# [4] = target: T4, PUM1 PUF domain R3-THE R4-TFR R7-NPG C935T + R936H + Q939E + N971T + H972F + Q975R + S1079N + N1080P + E1083G (Homo sapiens) (UniProt Q14671)
# T4 sequence: T2 sequence with V72N, F73Y, S252N, N253P, E256G
# [5] = target: T5, PUM1 PUF domain R5-PHQ R6-SWD C1007P + R1008H + N1043S + Y1044W + Q1047D (UniProt Q14671)
# T5 sequence: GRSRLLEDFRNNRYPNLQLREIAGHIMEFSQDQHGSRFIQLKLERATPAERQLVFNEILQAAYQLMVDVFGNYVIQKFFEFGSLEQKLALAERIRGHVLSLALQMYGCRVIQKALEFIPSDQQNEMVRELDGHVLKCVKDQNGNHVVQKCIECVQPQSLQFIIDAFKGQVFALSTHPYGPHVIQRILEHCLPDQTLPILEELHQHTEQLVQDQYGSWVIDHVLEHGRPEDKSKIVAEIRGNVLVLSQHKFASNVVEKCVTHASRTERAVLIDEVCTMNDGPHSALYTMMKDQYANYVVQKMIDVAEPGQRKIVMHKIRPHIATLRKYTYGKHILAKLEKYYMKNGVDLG
# [6] = target: T6, PUM1 PUF domain R6-SWD R7-NPG N1043S + Y1044W + Q1047D + S1079N + N1080P + E1083G (Homo sapiens) (UniProt Q14671)
# T6 sequence: T5 sequence with P180C, H181R, S252N, N253P, E256G
# [7] = target: T7, PUM1 PUF domain R3-THE R4-TFR R7-NPG C935T + R936H + Q939E + N971T + H972F + Q975R + S1079N + N1080P + E1083G (UniProt Q14671)
# T7 sequence: T2 sequence with V72N, F73Y, S252N, N253P, E256G
# [8] = target: T8, PUM1 PUF domain R6-SWD R7-NPG N1043S + Y1044W + Q1047D + S1079N + N1080P + E1083G (UniProt Q14671)
# T8 sequence: T5 sequence with P180C, H181R, S252N, N253P, E256G
Sequence,binding signal (log2 enrichment (interaction score)) [1],binding signal (log2 enrichment (interaction score)) [2],binding signal (log2 enrichment (interaction score)) [3],binding signal (log2 enrichment (interaction score)) [4],binding signal (log2 enrichment (interaction score)) [5],binding signal (log2 enrichment (interaction score)) [6],binding signal (log2 enrichment (interaction score)) [7],binding signal (log2 enrichment (interaction score)) [8]
GGCUAGAACUAGUGGAUCCCCCGGCGCCCGGCGGCUCGAGCCCGGGUAAGUUGCCGAAGUCUGCAUGCCGCCGGGCGCCAUGCCUGCAGGUCGACUCUAGAAAACAUG,-4.1,-5.35,-6.23,-0.86,–,–,–,–
GGCUAGAACUAGUGGAUCCCCCGGCGCCCGGCGGCUCGAGCCCGGGUAAGUACAAGAAGUCUGCAUGCCGCCGGGCGCCAUGCCUGCAGGUCGACUCUAGAAAACAUG,-6.21,-5.01,< -7.16,-1.46,< -7.06,–,–,–
GGCUAGAACUAGUGGAUCCCCCGGCGCCCGGCGGCUCGAGCCCGGGUAAGUGUUAGCCGUCUGCAUGCCGCCGGGCGCCAUGCCUGCAGGUCGACUCUAGAAAACAUG,-5.92,-5.13,< -6.52,-1.64,–,–,–,–
GGCUAGAACUAGUGGAUCCCCCGGCGCCCGGCGGCUCGAGCCCGGGUAAGACACAGUAGUCUGCAUGCCGCCGGGCGCCAUGCCUGCAGGUCGACUCUAGAAAACAUG,-6.66,-4.77,-6.55,–,–,–,–,–
GGCUAGAACUAGUGGAUCCCCCGGCGCCCGGCGGCUCGAGCCCGGGUAAGUGUGUCCAGUCUGCAUGCCGCCGGGCGCCAUGCCUGCAGGUCGACUCUAGAAAACAUG,-5.44,-5.19,-6.66,–,–,–,–,–
GGCUAGAACUAGUGGAUCCCCCGGCGCCCGGCGGCUCGAGCCCGGGUAAGUUUACGUGGUCUGCAUGCCGCCGGGCGCCAUGCCUGCAGGUCGACUCUAGAAAACAUG,-5.82,-5.49,-6.63,–,–,–,–,–
GGCUAGAACUAGUGGAUCCCCCGGCGCCCGGCGGCUCGAGCCCGGGUAAGUGUAAAACGUCUGCAUGCCGCCGGGCGCCAUGCCUGCAGGUCGACUCUAGAAAACAUG,-3.02,-5.47,-6.33,-1.22,-6.69,-0.7,–,–
GGCUAGAACUAGUGGAUCCCCCGGCGCCCGGCGGCUCGAGCCCGGGUAAGUUUAAAGAGUCUGCAUGCCGCCGGGCGCCAUGCCUGCAGGUCGACUCUAGAAAACAUG,-6.52,-5.21,-6.86,–,< -7.47,–,-2.36,–
GGCUAGAACUAGUGGAUCCCCCGGCGCCCGGCGGCUCGAGCCCGGGUAAGUCGUAUUAGUCUGCAUGCCGCCGGGCGCCAUGCCUGCAGGUCGACUCUAGAAAACAUG,-5.84,-5.46,-7.06,–,< -8.12,–,-2.14,–
GGCUAGAACUAGUGGAUCCCCCGGCGCCCGGCGGCUCGAGCCCGGGUAAGUGGAGAAAGUCUGCAUGCCGCCGGGCGCCAUGCCUGCAGGUCGACUCUAGAAAACAUG,-5.6,-5.3,-6.59,–,-9.13,–,-2.12,–
GGCUAGAACUAGUGGAUCCCCCGGCGCCCGGCGGCUCGAGCCCGGGUAAGUUGACAAAGUCUGCAUGCCGCCGGGCGCCAUGCCUGCAGGUCGACUCUAGAAAACAUG,-4.9,-5.59,-7.16,–,< -8.91,-0.45,-2.67,–
GGCUAGAACUAGUGGAUCCCCCGGCGCCCGGCGGCUCGAGCCCGGGUAAGUUGAAAUAGUCUGCAUGCCGCCGGGCGCCAUGCCUGCAGGUCGACUCUAGAAAACAUG,-4.99,-5.66,-6.8,–,-4.96,–,-2.67,–
GGCUAGAACUAGUGGAUCCCCCGGCGCCCGGCGGCUCGAGCCCGGGUAAGUAUACGAAGUCUGCAUGCCGCCGGGCGCCAUGCCUGCAGGUCGACUCUAGAAAACAUG,< -6.18,-5,-6.64,–,–,–,-2.26,–
GGCUAGAACUAGUGGAUCCCCCGGCGCCCGGCGGCUCGAGCCCGGGUAAGUUUGCGAAGUCUGCAUGCCGCCGGGCGCCAUGCCUGCAGGUCGACUCUAGAAAACAUG,-4.45,< -6.01,-7.39,–,–,–,-2.09,–
GGCUAGAACUAGUGGAUCCCCCGGCGCCCGGCGGCUCGAGCCCGGGUAAGUUUAAGAUGUCUGCAUGCCGCCGGGCGCCAUGCCUGCAGGUCGACUCUAGAAAACAUG,< -5.49,-4.66,< -6.22,-1.4,–,-1.34,–,–
GGCUAGAACUAGUGGAUCCCCCGGCGCCCGGCGGCUCGAGCCCGGGUAAGUGGACUGAGUCUGCAUGCCGCCGGGCGCCAUGCCUGCAGGUCGACUCUAGAAAACAUG,-4.32,-5.85,-7.05,< -1.81,-7.01,–,–,–
GGCUAGAACUAGUGGAUCCCCCGGCGCCCGGCGGCUCGAGCCCGGGUAAGUGUCAGUUGUCUGCAUGCCGCCGGGCGCCAUGCCUGCAGGUCGACUCUAGAAAACAUG,< -5.71,-5.18,-6.48,–,–,–,-2.03,< -2.41
GGCUAGAACUAGUGGAUCCCCCGGCGCCCGGCGGCUCGAGCCCGGGUAAGUGUAAGUGGUCUGCAUGCCGCCGGGCGCCAUGCCUGCAGGUCGACUCUAGAAAACAUG,-2.66,< -6.02,-6.27,–,< -7.69,–,-3.07,–

# Whole records as entered above. Values in the order: binding signal (log2 enrichment (interaction score)) [1] | binding signal (log2 enrichment (interaction score)) [2] | binding signal (log2 enrichment (interaction score)) [3] | binding signal (log2 enrichment (interaction score)) [4] | binding signal (log2 enrichment (interaction score)) [5] | binding signal (log2 enrichment (interaction score)) [6] | binding signal (log2 enrichment (interaction score)) [7] | binding signal (log2 enrichment (interaction score)) [8]
# GGCUAGAACUAGUGGAUCCCCCGGCGCCCGGCGGCUCGAGCCCGGGUAAGUUUAAAGAGUCUGCAUGCCGCCGGGCGCCAUGCCUGCAGGUCGACUCUAGAAAACAUG as listed: -6.52 | -5.21 | -6.86 | – | < -7.47 | – | -2.36 | –
# GGCUAGAACUAGUGGAUCCCCCGGCGCCCGGCGGCUCGAGCCCGGGUAAGUGGAGAAAGUCUGCAUGCCGCCGGGCGCCAUGCCUGCAGGUCGACUCUAGAAAACAUG as listed: -5.6 | -5.3 | -6.59 | – | -9.13 | – | -2.12 | –

# Source: publication PMC8384837
